# Results are given in words; binding and its absence hold for the method and conditions named. Binding seen in cells or lysates may run through a third protein. Here binding means that the protein was enriched with, or labelled near, the bait; the list need not be complete. For some of these results: Sequences can lack the tags named with a protein.
# By UniProt entry, the sequences of proteins in these tests, tags left out.
# UniProt Q6P3S6: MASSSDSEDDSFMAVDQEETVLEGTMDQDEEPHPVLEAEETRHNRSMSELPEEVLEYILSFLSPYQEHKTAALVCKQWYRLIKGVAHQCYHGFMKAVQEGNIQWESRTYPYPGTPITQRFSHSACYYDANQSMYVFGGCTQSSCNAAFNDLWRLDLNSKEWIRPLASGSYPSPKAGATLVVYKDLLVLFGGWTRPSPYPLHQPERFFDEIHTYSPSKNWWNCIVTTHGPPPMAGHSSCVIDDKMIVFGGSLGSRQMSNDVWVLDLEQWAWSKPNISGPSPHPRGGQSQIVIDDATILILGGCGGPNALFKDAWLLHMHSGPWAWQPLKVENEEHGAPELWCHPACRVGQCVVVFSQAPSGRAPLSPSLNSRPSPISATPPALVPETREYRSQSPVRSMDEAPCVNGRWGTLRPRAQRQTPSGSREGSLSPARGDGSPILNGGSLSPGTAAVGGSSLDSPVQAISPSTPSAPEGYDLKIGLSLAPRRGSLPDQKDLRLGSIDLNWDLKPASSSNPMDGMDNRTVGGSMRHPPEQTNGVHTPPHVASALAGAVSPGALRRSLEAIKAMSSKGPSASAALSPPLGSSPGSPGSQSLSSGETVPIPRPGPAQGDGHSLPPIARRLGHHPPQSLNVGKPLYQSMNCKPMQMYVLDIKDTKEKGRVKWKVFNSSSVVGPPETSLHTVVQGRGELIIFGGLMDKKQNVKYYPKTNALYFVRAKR
# B1: PP4C (the catalytic subunit of protein phosphatase 4) (protein, UniProt P60510 1-307)
# chain: MAEISDLDRQIEQLRRCELIKESEVKALCAKAREILVEESNVQRVDSPVTVCGDIHGQFYDLKELFRVGGDVPETNYLFMGDFVDRGFYSVETFLLLLALKVRYPDRITLIRGNHESRQITQVYGFYDECLRKYGSVTVWRYCTEIFDYLSLSAIIDGKIFCVHGGLSPSIQTLDQIRTIDRKQEVPHDGPMCDLLWSDPEDTTGWGVSPRGAGYLFGSDVVAQFNAANDIDMICRAHQLVMEGYKWHFNETVLTVWSAPNYCYRCGNVAAILELDEHLQKDFIIFEAAPQETRGIPSKKPVADYFL
# B2: PP4R2 (protein, UniProt Q9NY27 1-417)
# chain: MDVERLQEALKDFEKRGKKEVCPVLDQFLCHVAKTGETMIQWSQFKGYFIFKLEKVMDDFRTSAPEPRGPPNPNVEYIPFDEMKERILKIVTGFNGIPFTIQRLCELLTDPRRNYTGTDKFLRGVEKNVMVVSCVYPSSEKNNSNSLNRMNGVMFPGNSPSYTERSNINGPGTPRPLNRPKVSLSAPMTTNGLPESTDSKEANLQQNEEKNHSDSSTSESEVSSVSPLKNKHPDEDAVEAEGHEVKRLRFDKEGEVRETASQTTSSEISSVMVGETEASSSSQDKDKDSRCTRQHCTEEDEEEDEEEEEESFMTSREMIPERKNQEKESDDALTVNEETSEENNQMEESDVSQAEKDLLHSEGSENEGPVSSSSSDCRETEELVGSNSSKTGEILSESSMENDDEATEVTDEPMEQD
# B3: PP4R1 (protein, UniProt Q8TF05 1-950)
# chain: MADLSLLQEDLQEDADGFGVDDYSSESDVIIIPSALDFVSQDEMLTPLGRLDKYAASENIFNRQMVARSLLDTLREVCDDERDCIAVLERISRLADDSEPTVRAELMEQVPHIALFCQENRPSIPYAFSKFLLPIVVRYLADQNNQVRKTSQAALLALLEQELIERFDVETKVCPVLIELTAPDSNDDVKTEAVAIMCKMAPMVGKDITERLILPRFCEMCCDCRMFHVRKVCAANFGDICSVVGQQATEEMLLPRFFQLCSDNVWGVRKACAECFMAVSCATCQEIRRTKLSALFINLISDPSRWVRQAAFQSLGPFISTFANPSSSGQYFKEESKSSEEMSVENKNRTRDQEAPEDVQVRPEDTPSDLSVSNSSVILENTMEDHAAEASGKPLGEISVPLDSSLLCTLSSESHQEAASNENDKKPGNYKSMLRPEVGTTSQDSALLDQELYNSFHFWRTPLPEIDLDIELEQNSGGKPSPEGPEEESEGPVPSSPNITMATRKELEEMIENLEPHIDDPDVKAQVEVLSAALRASSLDAHEETISIEKRSDLQDELDINELPNCKINQEDSVPLISDAVENMDSTLHYIHSDSDLSNNSSFSPDEERRTKVQDVVPQALLDQYLSMTDPSRAQTVDTEIAKHCAYSLPGVALTLGRQNWHCLRETYETLASDMQWKVRRTLAFSIHELAVILGDQLTAADLVPIFNGFLKDLDEVRIGVLKHLHDFLKLLHIDKRREYLYQLQEFLVTDNSRNWRFRAELAEQLILLLELYSPRDVYDYLRPIALNLCADKVSSVRWISYKLVSEMVKKLHAATPPTFGVDLINELVENFGRCPKWSGRQAFVFVCQTVIEDDCLPMDQFAVHLMPHLLTLANDRVPNVRVLLAKTLRQTLLEKDYFLASASCHQEAVEQTIMALQMDRDSDVKYFASIHPASTKISEDAMSTASSTY
# B4: PP4R3A (SMEK1) (protein, UniProt Q6IN85 1-833)
# chain: MTDTRRRVKVYTLNEDRQWDDRGTGHVSSGYVERLKGMSLLVRAESDGSLLLESKINPNTAYQKQQDTLIVWSEAENYDLALSFQEKAGCDEIWEKICQVQGKDPSVDITQDLVDESEEERFDDMSSPGLELPSCELSRLEEIAELVASSLPSPLRREKLALALENEGYIKKLLELFHVCEDLENIEGLHHLYEIIKGIFLLNRTALFEVMFSEECIMDVIGCLEYDPALSQPRKHREFLTKTAKFKEVIPISDPELKQKIHQTYRVQYIQDMVLPTPSVFEENMLSTLHSFIFFNKVEIVGMLQEDEKFLTDLFAQLTDEATDEEKRQELVNFLKEFCAFSQTLQPQNRDAFFKTLSNMGILPALEVILGMDDTQVRSAATDIFSYLVEYNPSMVREFVMQEAQQNDDVSKKLTEQKITSKDILLINLIIEHMICDTDPELGGAVQLMGLLRTLVDPENMLATANKTEKTEFLGFFYKHCMHVLTAPLLANTTEDKPSKDDFQTAQLLALVLELLTFCVEHHTYHIKNYIINKDILRRVLVLMASKHAFLALCALRFKRKIIGLKDEFYNRYIMKSFLFEPVVKAFLNNGSRYNLMNSAIIEMFEFIRVEDIKSLTAHVIENYWKALEDVDYVQTFKGLKLRFEQQRERQDNPKLDSMRSILRNHRYRRDARTLEDEEEMWFNTDEDDMEDGEAVVSPSDKTKNDDDIMDPISKFMERKKLKESEEKEVLLKTNLSGRQSPSFKLSLSSGTKTNLTSQSSTTNLPGSPGSPGSPGSPGSPGSVPKNTSQTAAITTKGGLVGLVDYPDDDEDDDEDEDKEDTLPLSKKAKFDS
# B5: CCDC6 (protein, UniProt Q16204 1-474)
# chain: MADSASESDTDGAGGNSSSSAAMQSSCSSTSGGGGGGGGGGGGGKSGGIVISPFRLEELTNRLASLQQENKVLKIELETYKLKCKALQEENRDLRKASVTIQARAEQEEEFISNTLFKKIQALQKEKETLAVNYEKEEEFLTNELSRKLMQLQHEKAELEQHLEQEQEFQVNKLMKKIKKLENDTISKQLTLEQLRREKIDLENTLEQEQEALVNRLWKRMDKLEAEKRILQEKLDQPVSAPPSPRDISMEIDSPENMMRHIRFLKNEVERLKKQLRAAQLQHSEKMAQYLEEERHMREENLRLQRKLQREMERREALCRQLSESESSLEMDDERYFNEMSAQGLRPRTVSSPIPYTPSPSSSRPISPGLSYASHTVGFTPPTSLTRAGMSYYNSPGLHVQHMGTSHGITRPSPRRSNSPDKFKRPTPPPSPNTQTPVQPPPPPPPPPMQPTVPSAATSQPTPSQHSAHPSSQP
# What was measured:
# [1] = biological target: FBXO42 (bait of the IP-MS experiment) (UniProt Q6P3S6); test: affinity purification with mass spectrometry
# Flag PP4C = biological target: T1, Flag PP4C (UniProt P60510); test: affinity purification with mass spectrometry
# T1 sequence: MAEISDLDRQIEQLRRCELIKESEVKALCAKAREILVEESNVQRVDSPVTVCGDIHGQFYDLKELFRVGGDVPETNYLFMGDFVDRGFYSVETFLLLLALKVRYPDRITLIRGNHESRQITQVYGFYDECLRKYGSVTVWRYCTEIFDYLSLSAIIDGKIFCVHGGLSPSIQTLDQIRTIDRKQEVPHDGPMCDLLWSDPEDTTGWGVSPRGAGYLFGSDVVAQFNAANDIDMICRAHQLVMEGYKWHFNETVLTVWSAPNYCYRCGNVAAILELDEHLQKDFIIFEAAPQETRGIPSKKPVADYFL
Binder,binding [1],binding (Flag PP4C)
B1,binds,–
B2,binds,binds
B3,binds,binds
B4,binds,–
B5,binds,–

# Reference: article doi:10.1101/2025.05.02.651838
